# Assay results published in PMC6928916.
# Amino acid sequences for entries named in this document (tags omitted).
# UniProt Q80WG5: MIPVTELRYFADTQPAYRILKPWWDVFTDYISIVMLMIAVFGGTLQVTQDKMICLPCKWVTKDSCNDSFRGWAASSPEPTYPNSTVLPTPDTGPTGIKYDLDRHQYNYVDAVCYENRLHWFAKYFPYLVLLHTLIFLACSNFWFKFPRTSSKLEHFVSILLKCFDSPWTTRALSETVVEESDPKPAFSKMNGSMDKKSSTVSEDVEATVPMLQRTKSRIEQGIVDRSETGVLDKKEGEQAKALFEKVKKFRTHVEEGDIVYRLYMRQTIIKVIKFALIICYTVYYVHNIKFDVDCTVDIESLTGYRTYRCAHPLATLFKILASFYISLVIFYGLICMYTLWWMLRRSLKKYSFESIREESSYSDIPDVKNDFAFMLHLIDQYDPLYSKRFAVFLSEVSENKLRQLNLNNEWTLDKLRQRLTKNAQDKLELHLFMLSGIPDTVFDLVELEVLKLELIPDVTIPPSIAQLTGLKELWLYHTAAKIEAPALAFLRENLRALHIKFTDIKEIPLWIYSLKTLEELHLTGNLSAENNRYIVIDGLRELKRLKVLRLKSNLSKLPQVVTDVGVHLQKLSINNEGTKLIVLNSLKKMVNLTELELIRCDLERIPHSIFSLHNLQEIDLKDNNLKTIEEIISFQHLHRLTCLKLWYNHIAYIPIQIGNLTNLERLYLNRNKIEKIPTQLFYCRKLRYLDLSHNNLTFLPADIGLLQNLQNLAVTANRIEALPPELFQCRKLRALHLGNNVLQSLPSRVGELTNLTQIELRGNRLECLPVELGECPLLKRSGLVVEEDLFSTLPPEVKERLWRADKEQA
# UniProt Q8R502: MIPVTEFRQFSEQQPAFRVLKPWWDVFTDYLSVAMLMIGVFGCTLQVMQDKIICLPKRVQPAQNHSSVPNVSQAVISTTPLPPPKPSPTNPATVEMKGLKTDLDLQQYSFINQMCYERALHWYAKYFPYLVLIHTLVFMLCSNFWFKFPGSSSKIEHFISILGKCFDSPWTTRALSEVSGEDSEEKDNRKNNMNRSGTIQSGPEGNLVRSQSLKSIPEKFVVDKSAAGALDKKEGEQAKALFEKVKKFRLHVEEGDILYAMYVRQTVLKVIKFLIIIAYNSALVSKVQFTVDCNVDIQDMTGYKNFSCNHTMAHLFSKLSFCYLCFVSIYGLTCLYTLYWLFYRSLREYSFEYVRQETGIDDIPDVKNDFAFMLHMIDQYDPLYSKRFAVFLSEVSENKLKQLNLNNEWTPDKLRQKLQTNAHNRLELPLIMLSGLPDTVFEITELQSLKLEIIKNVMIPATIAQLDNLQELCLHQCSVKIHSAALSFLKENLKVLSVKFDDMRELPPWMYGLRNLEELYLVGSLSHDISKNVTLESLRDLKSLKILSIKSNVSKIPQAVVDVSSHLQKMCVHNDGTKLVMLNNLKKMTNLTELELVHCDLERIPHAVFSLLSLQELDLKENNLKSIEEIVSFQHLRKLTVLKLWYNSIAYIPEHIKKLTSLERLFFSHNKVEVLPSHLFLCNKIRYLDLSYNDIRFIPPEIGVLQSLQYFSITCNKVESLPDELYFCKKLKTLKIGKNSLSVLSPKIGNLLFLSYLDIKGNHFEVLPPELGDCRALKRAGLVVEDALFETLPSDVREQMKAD
# UniProt Q8BGR2: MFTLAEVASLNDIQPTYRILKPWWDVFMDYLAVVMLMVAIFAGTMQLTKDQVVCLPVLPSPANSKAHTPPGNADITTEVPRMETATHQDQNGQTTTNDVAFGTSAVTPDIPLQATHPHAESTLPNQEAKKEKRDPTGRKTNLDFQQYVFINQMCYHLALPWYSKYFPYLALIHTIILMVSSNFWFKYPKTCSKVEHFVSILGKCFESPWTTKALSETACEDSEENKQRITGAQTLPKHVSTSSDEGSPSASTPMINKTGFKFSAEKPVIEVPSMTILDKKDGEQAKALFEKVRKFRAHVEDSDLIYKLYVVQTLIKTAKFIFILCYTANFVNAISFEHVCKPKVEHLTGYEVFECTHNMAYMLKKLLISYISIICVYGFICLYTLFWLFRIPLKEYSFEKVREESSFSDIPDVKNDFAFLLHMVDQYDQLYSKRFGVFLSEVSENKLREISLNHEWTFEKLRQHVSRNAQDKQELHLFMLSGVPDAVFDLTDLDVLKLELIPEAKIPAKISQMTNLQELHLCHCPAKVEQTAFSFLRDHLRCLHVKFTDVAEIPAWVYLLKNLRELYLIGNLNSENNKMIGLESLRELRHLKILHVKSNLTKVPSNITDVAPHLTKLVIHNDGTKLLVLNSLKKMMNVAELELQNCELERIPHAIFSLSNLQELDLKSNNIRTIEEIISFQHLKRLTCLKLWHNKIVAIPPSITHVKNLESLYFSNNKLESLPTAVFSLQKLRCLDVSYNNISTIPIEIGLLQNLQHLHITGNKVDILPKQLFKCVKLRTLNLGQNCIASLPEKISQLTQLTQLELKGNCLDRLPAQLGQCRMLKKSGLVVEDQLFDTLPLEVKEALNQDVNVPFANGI
# UniProt Q66JT1: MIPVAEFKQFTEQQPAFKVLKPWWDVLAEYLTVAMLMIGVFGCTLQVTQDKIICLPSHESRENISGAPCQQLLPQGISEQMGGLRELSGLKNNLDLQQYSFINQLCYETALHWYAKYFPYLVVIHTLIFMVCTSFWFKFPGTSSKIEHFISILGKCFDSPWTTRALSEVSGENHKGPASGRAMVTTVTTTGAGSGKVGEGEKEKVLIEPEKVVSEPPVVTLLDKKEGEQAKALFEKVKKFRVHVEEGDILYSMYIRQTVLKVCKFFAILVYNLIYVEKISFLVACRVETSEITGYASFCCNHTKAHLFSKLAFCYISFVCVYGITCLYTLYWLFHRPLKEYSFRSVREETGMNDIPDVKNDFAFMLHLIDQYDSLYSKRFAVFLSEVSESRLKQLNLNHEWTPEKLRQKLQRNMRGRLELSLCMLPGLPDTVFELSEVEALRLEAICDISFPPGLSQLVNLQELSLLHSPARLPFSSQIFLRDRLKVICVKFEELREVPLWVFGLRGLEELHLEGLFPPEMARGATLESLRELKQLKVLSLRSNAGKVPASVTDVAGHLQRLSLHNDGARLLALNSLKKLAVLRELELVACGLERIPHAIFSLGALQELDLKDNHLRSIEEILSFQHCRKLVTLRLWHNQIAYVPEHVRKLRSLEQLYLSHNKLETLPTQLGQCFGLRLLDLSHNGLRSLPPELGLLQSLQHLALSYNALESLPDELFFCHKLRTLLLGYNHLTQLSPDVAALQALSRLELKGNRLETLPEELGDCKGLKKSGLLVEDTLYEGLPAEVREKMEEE
# Results are given in words; binding and its absence hold for the method and conditions named. In cells and extracts the contact can be indirect. Some entries that bind do so weakly or less than the wild type.
# Target: LRRC8A (mouse (endogenous in C2C12 and 3T3)) (UniProt Q80WG5)
# Assay: co-IP; 15 μg LRRC8A antibody added to cleared C2C12 or 3T3 lysate with 2 mg total protein (150 mM NaCl, 50 mM Tris-HCl pH 7.5, 1% NP-40, 0.5% sodium deoxycholate), Protein A Dynabeads overnight at 4 °C, four washes, immunoblot; LRRC8A-deficient cells as control
row,binding,Molecule
1,binds,LRRC8C (from UniProt Q8R502 1-803)
2,binds,LRRC8D (from UniProt Q8BGR2 1-859)
3,binds,LRRC8E (from UniProt Q66JT1 1-795)
4,binds,"LRRC8B (protein, UniProt Q5DU41 1-803) MITLTELKCLADAQSSYHILKPWWDVFWYYITLIMLLVAVLAGALQLTQSRVLCCLPCKVEFDNQCAVPWDLLKGSENASSNSGLLLPLPLRIQNDLHRQQYSYIDAVCYEKQLHWFAKFFPYLVLLHTLIFAACSNFWLHYPSTSSRLEHFVSILHKCFDSPWTTRALSETVAEQSVRPLKLSKSKTLLSTSGGSADIDASKQSLPYPQPGLESPGIESPTSSVLDKKEGEQAKAIFEKVKRFRLHVEQRDIIYRVYLKQIIVKVILFVLIITYVPYFLSYITLEIDCSIDVQAFTGYKRYQCVYSLAEIFKVLASFYVILVMLYGLTSSYSLWWMLRSSLKQYSFEALREKSNYSDIPDVKNDFAFILHLADQYDPLYSKRFSIFLSEVSENKLKQINLNNEWTVERLKSKLVKNSQDKVELHLFMLNGLPDNVFELTEMEVLSLELIPEVKLPAAVAQLVNLRELHVYHSSLVVDHPALAFLEENLRILRLKFTEMGKIPRWVFHLKNLKELYLSGCVLPEQLSSLHLEGFQDLKNLRTLYLKSSLSRIPQVVTDLLPSLQKLSLDNEGSKLVVLNNLKKMVNLKSLELLSCDLERIPHSIFSLNNLHELDLKENNLKTVEEIISFQHLPSLSCLKLWHNNIAYIPAQIGALSNLEQLFLGHNNIESLPLQLFLCTKLHYLDLSYNHLTFIPEEIQYLTNLQYFAVTNNNIEMLPDGLFQCKKLQCLLLGRNSLTDLSPLVGELSNLTHLELTGNYLETLPVELEGCQSLKRSCLIVEDSLLNSLPLPVAERLQTCLDKC"
